From PubChem BioAssay AID192 (DTP/NCI, 2004) come the findings set out here.

The list shows only some results of the screen, not a fair sample: it is rich in T/C values a quarter to a half above the control, in often repeated tests (any T/C) and in doses without a T/C. Further doses and runs are listed elsewhere. T/C: endpoint of the treated group in % of that of the vehicle group. Some doses have a count of surviving animals in place of a T/C: the source holds a T/C of zero for them, seemingly a mark for toxic or unscored doses. Some doses without a T/C left all or most animals alive at the check, yet need not have been tolerated: the source hardly ever lists a survival T/C far under the control, and the zero likely stands for such cases as well. Survivors were counted at the toxicity check, usually on the fifth day, unless a day is given; later deaths do not show. Schedules are NCI's codes, read here as Q, the interval in days (D) or hours (H), X, the number of doses. Some entries hold several experiments; the results are listed from low to high. Some molecules as drawn cover several salts, stereoisomers or complexes of the source; a dose is that of the sample tested. Marks such as (2×) count equal records among those shown. Where survival is the endpoint, this PubChem deposit counts one and a half times the control or more as active, and values a quarter to a half above the control carry no call in these data; other NCI protocols may use other cut-offs.

In the experiment the test system is BDF1 mice, B16 melanoma ip, median survival T/C. Kind of experiment: NCI In Vivo Anticancer Drug Screen. Data for tumor model B16 Melanoma (intraperitoneal) in B6D2F1 (BDF1) mice. Conditions: T/C endpoint: median survival time, higher T/C = longer survival. The method, boiled down: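 Compounds were tested in mice carrying transplantable tumors. Survival or tumor size was recorded, and each value is the treated-group measurement (T) divided by that of the vehicle-treated control group (C).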

[1] abbreviates: dose: 50.0 mg/kg/injection, schedule: Q01DX009 (ip), vehicle: Klucel (hydroxypropylcellulose) (HPC).
Setting [2] is: dose: 100.0 mg/kg/injection, schedule: Q01DX009 (ip), vehicle: Klucel (hydroxypropylcellulose) (HPC).
The mark [3] stands for this setting: dose: 200.0 mg/kg/injection, schedule: Q01DX009 (ip), vehicle: Klucel (hydroxypropylcellulose) (HPC).
The mark [4] stands for this setting: dose: 400.0 mg/kg/injection, schedule: Q01DX009 (ip), vehicle: Klucel (hydroxypropylcellulose) (HPC).
Setting [5] is: dose: 100.0 mg/kg/injection, schedule: Q01DX009 (ip), vehicle: saline with Tween-80.
Where [6] appears, read: dose: 200.0 mg/kg/injection, schedule: Q01DX009 (ip), vehicle: saline with Tween-80.
Setting [7] is: dose: 25.0 mg/kg/injection, schedule: Q01DX009 (ip), vehicle: Klucel (hydroxypropylcellulose) (HPC).
Where [8] appears, read: dose: 400.0 mg/kg/injection, schedule: Q04DX003 (ip), vehicle: saline.
Where [9] appears, read: dose: 200.0 mg/kg/injection, schedule: Q01DX009 (ip), vehicle: saline.

Take `COc1ccc2cc1Oc1ccc(cc1)C[C@H]1c3cc(c(OC)cc3CCN1C)Oc1c(O)c(OC)cc3c1[C@H](C2)N(C)CC3`: the survivor count runs as follows: (dose: 100.0 mg/kg/injection, schedule: Q01DX009 (ip), vehicle: acid diluted with saline) 8 of 10; (dose: 200.0 mg/kg/injection, schedule: Q01DX009 (ip), vehicle: acid diluted with saline) 1 of 10; (dose: 400.0 mg/kg/injection, schedule: Q01DX009 (ip), vehicle: acid diluted with saline) 0 of 10.
For `COC[C@H]1OC(=O)c2coc3c2[C@@]1(C)C1=C(C3=O)[C@@H]2CCC(=O)[C@@]2(C)C[C@H]1OC(C)=O`, the survivor count runs as follows: (dose: 1.25 mg/kg/injection, schedule: Q01DX009 (ip), vehicle: saline with Tween-80) 9 of 10; (dose: 2.5 mg/kg/injection, schedule: Q01DX009 (ip), vehicle: saline with Tween-80) 10 of 10; (dose: 5.0 mg/kg/injection, schedule: Q01DX009 (ip), vehicle: saline with Tween-80) 8 of 10; (dose: 10.0 mg/kg/injection, schedule: Q01DX009 (ip), vehicle: saline with Tween-80) 1 of 10.
With `O=C(NCCO)Nc1ccc(Cl)c(Cl)c1`, the survivor count (dose: 135.0 mg/kg/injection, schedule: Q01DX009 (ip), vehicle: other) was 10 of 10. For the same compound, the T/C (dose: 200.0 mg/kg/injection, schedule: Q01DX009 (ip), vehicle: other) was 142 % of control.
As for `COc1ccc(/C=N/n2c3ccccc3c3ccccc32)cc1OCCN(C)C`, the survivor count runs as follows: under setting [1], 5 of 10; under setting [2], 0 of 10; under setting [3], 0 of 10; under setting [4], 0 of 10.
Turning to `NC(=S)SCCC(=O)O`, under setting [4], the survivor count is 6 of 10.
As to `NC(=O)c1[nH]nc(C2OC(CO)C(O)C2O)c1O` (stereo unspecified), the T/C (dose: 0.25 mg/kg/injection, schedule: Q01DX009 (ip), vehicle: saline) was 142 % of control. In addition, the survivor count reads like this: (dose: 1.25 mg/kg/injection, schedule: Q01DX009 (ip), vehicle: saline) 10 of 10; (dose: 2.5 mg/kg/injection, schedule: Q01DX009 (ip), vehicle: saline) 9 of 10 and 10 of 10; (dose: 5.0 mg/kg/injection, schedule: Q01DX009 (ip), vehicle: saline) 9 of 10.
For the compound `CC(C)=CCC/C(C)=C\CCl`, the survivor count runs as follows: under setting [5], 9 of 10; under setting [6], 4 of 10.
Take `CC(C)(O)C(C)(O)c1cccc(Cl)c1` (stereo unspecified): the survivor count under setting [2] is 10 of 10 and the survivor count under setting [3] is recorded as 9 of 10.
As for `CC(Cc1ccccc1)NC(C#N)c1ccccc1` (stereo unspecified), the survivor count was 10 of 10 under setting [1] and 1 of 10 under setting [2].
On to `CCOc1ccc(NC(=O)Nc2cccc3ccccc23)cc1`, for which the survivor count runs as follows: (dose: 12.5 mg/kg/injection, schedule: Q01DX009 (ip), vehicle: Klucel (hydroxypropylcellulose) (HPC)) 9 of 10; under setting [7], 8 of 10; under setting [1], 10 of 10; under setting [2], 10 of 10; under setting [3], 10 of 10.
Take `CCCCCCCCCCCCCC[n+]1ccccc1`: the survivor count by setting is: (dose: 0.13 mg/kg/injection, schedule: Q01DX009 (ip), vehicle: saline with Tween-80) 6 of 6; (dose: 0.25 mg/kg/injection, schedule: Q01DX009 (ip), vehicle: saline with Tween-80) 6 of 6; (dose: 0.5 mg/kg/injection, schedule: Q01DX009 (ip), vehicle: saline with Tween-80) 6 of 6 (2×).
Turning to `CCOCCc1ccccn1`, the survivor count (dose: 100.0 mg/kg/injection, schedule: Q04DX003 (ip), vehicle: saline) is 10 of 10; the survivor count (dose: 200.0 mg/kg/injection, schedule: Q04DX003 (ip), vehicle: saline) is recorded as 10 of 10; the survivor count under setting [8] is 9 of 10.
As to `O=C1C(=O)c2ccccc2-c2ccccc21.O=C1C(=O)c2ccccc2-c2ccccc21.[Hg]`, the survivor count is reported as 10 of 10 (dose: 6.0 mg/kg/injection, schedule: Q01DX009 (ip), vehicle: saline with Tween-80) and 4 of 10 (dose: 12.0 mg/kg/injection, schedule: Q01DX009 (ip), vehicle: saline with Tween-80).
Turning to `Cc1ccc(C(C)(C)C[P+](C)(c2ccccc2)c2ccccc2)cc1`, the survivor count is on record as 10 of 10 under setting [7], 2 of 10 under setting [1], 0 of 10 under setting [2] and 0 of 10 under setting [3].
Regarding `CCCC1(CCC)CN(CO)C1=O`, the survivor count is given as 9 of 10 under setting [9] and 10 of 10 under setting [8].
As to `O=[n+]1ccn2cc3ccccc3cc2c1`, the survivor count reads like this: (dose: 15.0 mg/kg/injection, schedule: Q01DX009 (ip), vehicle: saline) 9 of 10; (dose: 30.0 mg/kg/injection, schedule: Q01DX009 (ip), vehicle: saline) 9 of 10.
As to `CCCCNC(=S)S`, the survivor count (dose: 400.0 mg/kg/injection, schedule: Q01DX009 (ip), vehicle: other) is on record as 4 of 10.
For `CC(C)=CCC/C(C)=C/CNCCc1c[nH]c2ccccc12`, the survivor count under setting [7] was 9 of 10, the survivor count under setting [1] is listed as 9 of 10 and the survivor count under setting [2] is 2 of 10.
Turning to `O=C(O)C(c1ccccc1)C1CCCC1` (stereo unspecified), the survivor count was 6 of 6 under setting [5] and 5 of 6 under setting [6].
In the case of `Cc1cc(C)c(C(=O)CC(=O)c2cccnc2)c(C)c1`, where the note is “dose: 400.0 mg/kg/injection, schedule: Q01DX009 (ip), vehicle: saline + Tween-80 + alcohol”, the survivor count was 10 of 10.
Regarding `C#CCOCC(CCl)OC(N)=O` (stereo unspecified), the survivor count (dose: 400.0 mg/kg/injection, schedule: Q04DX003 (ip), vehicle: saline with Tween-80) is 4 of 10.
As to `Cc1c(Cl)cccc1NC(=O)Oc1cc(Cl)c(Cl)cc1Cl`, the survivor count reads like this: under setting [1], 9 of 10; under setting [2], 10 of 10.
As to `O=S1(=O)OCc2ccccc21`, the survivor count under setting [2] is listed as 9 of 10.
Regarding `COc1cc2nc3cc([N+](=O)[O-])ccc3c(Cl)c2cc1OC`, the survivor count under setting [3] was 9 of 10.
Take `CN1CCN(c2ccc(Cl)cc2)CC1`: under setting [2], the survivor count is listed as 9 of 10.
Take `O=S(=O)(SC(S(=O)(=O)c1ccccc1)S(=O)(=O)c1ccccc1)c1ccccc1`: the survivor count under setting [4] is given as 10 of 10.
As for `CC(C)NCC(O)COc1cccc2ccccc12` (stereo unspecified), the survivor count (dose: 128.0 mg/kg/injection, schedule: Q01DX009 (ip), vehicle: Klucel (hydroxypropylcellulose) (HPC)) is 0 of 10.
In the case of `O=C(COc1ccc(Cl)cc1)Nc1cccc(C(F)(F)F)c1`, under “dose: 2.5 mg/kg/injection, schedule: Q01DX009 (ip), vehicle: Klucel (hydroxypropylcellulose) (HPC)”, the T/C is 136 % of control. Besides, the survivor count reads like this: (dose: 18.8 mg/kg/injection, schedule: Q01DX009 (ip), vehicle: saline with Tween-80) 10 of 10; (dose: 75.0 mg/kg/injection, schedule: Q01DX009 (ip), vehicle: saline with Tween-80) 10 of 10; (dose: 150.0 mg/kg/injection, schedule: Q01DX009 (ip), vehicle: saline with Tween-80) 9 of 10.
Regarding `CCC(=O)/C=C/C1C(C)=CCCC1(C)C` (stereo unspecified), the survivor count under setting [6] was 8 of 10.
On to `CSc1sc2ccccc2[n+]1C`, for which the survivor count under setting [9] is 1 of 10.
